Data from the supplement of paper PMC10849652.
The list shows a part of the results.

The chains behind the UniProt entries cited, without tags or fusion partners. Where a name states a change or a piece, a line headed by the entry shows the natural chain unless it says otherwise.
UniProt P60842, whole entry, looked up: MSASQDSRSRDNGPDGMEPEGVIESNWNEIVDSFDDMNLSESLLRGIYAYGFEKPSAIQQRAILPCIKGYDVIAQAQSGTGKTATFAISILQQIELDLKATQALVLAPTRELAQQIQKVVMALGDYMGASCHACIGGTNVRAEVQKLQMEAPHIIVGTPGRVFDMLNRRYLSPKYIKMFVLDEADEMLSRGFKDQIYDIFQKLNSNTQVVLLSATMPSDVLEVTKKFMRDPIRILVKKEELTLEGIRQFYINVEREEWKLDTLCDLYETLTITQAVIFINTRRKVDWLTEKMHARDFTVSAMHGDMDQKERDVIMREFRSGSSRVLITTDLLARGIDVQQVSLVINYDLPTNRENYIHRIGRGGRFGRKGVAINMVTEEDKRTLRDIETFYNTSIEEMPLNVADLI
UniProt Q32P44: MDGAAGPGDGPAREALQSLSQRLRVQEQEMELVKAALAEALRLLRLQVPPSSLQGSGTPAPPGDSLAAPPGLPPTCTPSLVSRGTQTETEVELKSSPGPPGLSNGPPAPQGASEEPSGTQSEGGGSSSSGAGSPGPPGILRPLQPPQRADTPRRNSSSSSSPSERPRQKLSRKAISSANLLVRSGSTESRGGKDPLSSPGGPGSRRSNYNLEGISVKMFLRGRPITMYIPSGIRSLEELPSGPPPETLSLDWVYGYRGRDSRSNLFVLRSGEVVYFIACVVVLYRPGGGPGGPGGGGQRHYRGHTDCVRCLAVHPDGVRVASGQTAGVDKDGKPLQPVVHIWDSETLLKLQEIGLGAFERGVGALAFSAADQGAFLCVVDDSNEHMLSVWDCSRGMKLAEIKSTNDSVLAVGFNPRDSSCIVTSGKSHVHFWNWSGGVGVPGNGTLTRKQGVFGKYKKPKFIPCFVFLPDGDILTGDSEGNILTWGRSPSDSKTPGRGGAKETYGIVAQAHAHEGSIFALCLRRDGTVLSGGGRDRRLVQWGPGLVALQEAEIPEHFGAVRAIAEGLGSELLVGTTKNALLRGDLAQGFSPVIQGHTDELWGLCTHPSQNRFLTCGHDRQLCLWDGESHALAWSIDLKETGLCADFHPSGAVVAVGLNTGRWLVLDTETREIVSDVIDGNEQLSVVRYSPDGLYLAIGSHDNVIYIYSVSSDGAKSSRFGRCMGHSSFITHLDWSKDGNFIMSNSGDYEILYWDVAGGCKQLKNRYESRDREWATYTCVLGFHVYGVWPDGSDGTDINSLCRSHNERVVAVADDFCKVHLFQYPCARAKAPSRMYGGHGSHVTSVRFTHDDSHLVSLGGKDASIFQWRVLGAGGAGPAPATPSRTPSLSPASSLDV
UniProt Q9H6S3: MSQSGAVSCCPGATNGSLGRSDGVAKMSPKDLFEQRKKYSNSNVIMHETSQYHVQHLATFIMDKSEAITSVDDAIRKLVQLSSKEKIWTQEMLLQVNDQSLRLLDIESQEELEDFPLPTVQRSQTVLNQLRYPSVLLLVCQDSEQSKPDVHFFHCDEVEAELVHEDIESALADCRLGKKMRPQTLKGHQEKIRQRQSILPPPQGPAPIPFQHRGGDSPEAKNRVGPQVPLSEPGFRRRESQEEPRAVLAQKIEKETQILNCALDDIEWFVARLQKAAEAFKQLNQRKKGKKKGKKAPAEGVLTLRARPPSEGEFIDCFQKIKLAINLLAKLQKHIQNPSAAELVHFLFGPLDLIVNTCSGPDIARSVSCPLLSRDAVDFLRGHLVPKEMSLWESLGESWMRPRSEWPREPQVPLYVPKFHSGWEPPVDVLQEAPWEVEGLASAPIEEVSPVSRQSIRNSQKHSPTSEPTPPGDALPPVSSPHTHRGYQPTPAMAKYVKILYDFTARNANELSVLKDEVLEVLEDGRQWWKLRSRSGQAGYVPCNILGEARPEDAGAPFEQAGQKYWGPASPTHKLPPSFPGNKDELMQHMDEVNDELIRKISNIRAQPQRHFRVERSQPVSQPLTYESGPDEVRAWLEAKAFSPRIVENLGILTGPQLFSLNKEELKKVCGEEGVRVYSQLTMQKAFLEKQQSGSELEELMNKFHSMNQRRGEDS
UniProt Q14249: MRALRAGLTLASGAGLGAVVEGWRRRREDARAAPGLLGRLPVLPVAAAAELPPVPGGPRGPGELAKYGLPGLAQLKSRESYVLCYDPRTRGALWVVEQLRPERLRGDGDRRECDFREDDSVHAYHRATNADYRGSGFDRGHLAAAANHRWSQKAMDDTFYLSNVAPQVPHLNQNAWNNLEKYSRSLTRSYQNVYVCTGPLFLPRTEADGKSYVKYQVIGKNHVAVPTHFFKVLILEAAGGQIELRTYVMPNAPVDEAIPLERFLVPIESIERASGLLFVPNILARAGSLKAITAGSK
UniProt P07099: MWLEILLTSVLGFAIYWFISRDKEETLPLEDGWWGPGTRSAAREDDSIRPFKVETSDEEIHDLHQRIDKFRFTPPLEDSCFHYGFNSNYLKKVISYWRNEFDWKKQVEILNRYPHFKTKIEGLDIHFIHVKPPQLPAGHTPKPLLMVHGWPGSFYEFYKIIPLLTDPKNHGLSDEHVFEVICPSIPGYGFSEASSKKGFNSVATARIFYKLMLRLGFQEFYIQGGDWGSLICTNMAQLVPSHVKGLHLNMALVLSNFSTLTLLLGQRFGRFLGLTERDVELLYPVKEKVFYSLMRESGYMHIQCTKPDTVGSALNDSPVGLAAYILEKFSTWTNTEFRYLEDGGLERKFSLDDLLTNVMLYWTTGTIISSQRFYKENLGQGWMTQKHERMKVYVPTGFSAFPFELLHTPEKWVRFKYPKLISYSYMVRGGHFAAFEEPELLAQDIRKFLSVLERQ
UniProt Q03468, whole entry, looked up: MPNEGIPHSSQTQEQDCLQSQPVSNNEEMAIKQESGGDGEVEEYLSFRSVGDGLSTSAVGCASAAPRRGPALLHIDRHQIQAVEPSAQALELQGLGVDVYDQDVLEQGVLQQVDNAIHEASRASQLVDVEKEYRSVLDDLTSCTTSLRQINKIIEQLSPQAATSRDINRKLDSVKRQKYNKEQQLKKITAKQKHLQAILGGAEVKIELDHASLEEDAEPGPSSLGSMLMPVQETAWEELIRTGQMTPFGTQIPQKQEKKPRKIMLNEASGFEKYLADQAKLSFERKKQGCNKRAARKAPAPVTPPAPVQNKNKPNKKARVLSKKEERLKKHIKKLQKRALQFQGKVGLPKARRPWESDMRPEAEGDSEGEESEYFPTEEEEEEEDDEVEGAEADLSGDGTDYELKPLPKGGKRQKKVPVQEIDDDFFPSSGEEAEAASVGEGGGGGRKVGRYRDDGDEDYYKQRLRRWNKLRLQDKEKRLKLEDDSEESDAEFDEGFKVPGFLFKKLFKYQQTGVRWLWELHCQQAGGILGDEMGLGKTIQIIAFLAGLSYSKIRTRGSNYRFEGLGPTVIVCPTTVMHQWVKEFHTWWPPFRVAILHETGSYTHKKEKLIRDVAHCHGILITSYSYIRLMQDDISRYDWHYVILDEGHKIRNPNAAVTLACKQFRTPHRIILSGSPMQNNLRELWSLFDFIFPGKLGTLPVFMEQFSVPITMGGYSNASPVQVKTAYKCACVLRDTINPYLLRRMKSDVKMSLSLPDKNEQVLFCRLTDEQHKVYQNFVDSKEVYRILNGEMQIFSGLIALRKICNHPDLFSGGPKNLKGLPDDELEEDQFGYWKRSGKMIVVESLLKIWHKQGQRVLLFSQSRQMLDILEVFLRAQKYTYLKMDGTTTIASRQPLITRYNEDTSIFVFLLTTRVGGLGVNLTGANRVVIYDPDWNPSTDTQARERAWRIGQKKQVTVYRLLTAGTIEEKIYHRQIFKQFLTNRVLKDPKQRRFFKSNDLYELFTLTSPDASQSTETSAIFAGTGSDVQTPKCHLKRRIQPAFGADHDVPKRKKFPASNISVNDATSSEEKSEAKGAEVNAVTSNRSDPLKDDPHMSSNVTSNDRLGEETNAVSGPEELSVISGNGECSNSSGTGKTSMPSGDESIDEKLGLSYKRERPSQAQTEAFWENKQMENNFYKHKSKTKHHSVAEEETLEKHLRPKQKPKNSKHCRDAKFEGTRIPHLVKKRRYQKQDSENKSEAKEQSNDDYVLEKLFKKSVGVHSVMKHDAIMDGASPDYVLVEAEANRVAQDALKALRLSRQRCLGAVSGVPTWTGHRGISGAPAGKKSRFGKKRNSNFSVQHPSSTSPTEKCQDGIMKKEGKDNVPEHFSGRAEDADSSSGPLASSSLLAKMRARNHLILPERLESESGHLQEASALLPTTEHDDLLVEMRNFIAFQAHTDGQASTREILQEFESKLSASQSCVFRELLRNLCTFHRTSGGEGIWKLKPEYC
UniProt P28715: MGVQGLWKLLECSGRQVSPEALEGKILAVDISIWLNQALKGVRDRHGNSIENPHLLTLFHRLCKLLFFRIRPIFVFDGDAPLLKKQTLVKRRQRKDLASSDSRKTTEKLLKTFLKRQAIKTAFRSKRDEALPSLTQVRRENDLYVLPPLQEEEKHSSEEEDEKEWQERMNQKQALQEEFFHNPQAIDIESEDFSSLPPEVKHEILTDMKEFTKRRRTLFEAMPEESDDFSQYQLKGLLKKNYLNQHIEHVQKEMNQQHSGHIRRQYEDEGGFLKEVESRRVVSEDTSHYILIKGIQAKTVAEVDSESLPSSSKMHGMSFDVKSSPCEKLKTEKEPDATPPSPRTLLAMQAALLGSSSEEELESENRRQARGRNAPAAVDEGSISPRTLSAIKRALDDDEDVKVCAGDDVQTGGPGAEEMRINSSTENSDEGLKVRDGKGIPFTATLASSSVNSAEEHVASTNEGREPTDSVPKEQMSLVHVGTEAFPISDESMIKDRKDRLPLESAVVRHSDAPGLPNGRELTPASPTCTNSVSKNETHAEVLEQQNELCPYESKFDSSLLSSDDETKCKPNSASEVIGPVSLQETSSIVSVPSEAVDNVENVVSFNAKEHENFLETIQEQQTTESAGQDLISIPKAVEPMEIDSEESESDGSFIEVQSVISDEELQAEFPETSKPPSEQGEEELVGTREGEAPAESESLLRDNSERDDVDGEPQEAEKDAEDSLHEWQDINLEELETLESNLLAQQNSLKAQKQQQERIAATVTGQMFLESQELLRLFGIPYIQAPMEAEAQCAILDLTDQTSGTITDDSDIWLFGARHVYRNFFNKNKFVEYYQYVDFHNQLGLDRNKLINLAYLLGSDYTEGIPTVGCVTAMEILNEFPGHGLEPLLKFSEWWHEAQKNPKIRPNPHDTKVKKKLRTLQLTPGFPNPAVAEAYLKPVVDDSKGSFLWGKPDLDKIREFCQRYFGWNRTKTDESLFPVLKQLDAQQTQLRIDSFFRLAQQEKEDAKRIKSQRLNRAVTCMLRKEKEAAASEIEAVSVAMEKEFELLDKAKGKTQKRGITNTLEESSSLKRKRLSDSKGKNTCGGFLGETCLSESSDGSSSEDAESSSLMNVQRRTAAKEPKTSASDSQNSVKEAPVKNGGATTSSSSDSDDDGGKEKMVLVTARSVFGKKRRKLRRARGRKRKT
UniProt Q9H5J4: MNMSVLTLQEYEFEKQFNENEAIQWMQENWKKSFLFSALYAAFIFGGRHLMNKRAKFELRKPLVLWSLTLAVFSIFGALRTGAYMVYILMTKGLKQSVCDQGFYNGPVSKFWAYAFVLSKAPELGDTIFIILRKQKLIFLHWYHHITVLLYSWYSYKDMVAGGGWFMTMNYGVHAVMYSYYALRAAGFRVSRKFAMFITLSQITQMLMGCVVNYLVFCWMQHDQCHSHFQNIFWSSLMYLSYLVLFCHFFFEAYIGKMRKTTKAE
UniProt Q13541: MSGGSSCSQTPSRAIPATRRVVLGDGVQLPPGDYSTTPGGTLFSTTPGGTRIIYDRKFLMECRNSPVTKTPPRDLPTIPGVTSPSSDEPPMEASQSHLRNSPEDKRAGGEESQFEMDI

Assays:
Experiment in all cases: log2 fold change, soluble protein after heating vs DMSO (PISA); higher = thermal stabilisation; K562 lysate, 10 uM; active = over 0.2 and 3.5 SD of the protein, either way, in both replicates (recomputed)
erlotinib = compound: C#Cc1cccc(Nc2ncnc3cc(OCCOC)c(OCCOC)cc23)c1 [erlotinib]
Method in brief: (§1)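 Pellets of K562 cells were dounce-homogenised in PBS pH 7.4 with 1 mM MgCl2, and the crude extract was held at 1 mg/mL protein for a 30 min treatment with 10 μM compound. Aliquots were heated for 3 min over 48°C-58°C and pooled before NP-40 was added to 0.5% at 4°C. The supernatant from 21,000xg for 90 min was quantified by TMTpro 16plex LC-MS/MS with channel sums equalised. Values are reported from duplicates as log-two fold change in thermal stability relative to solvent controls.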

[1] = compound: C/C(=N\NC(=O)C1=CC(=CC=C1)S(=O)(=O)N2CCOCC2)/C3=C(C=CC(=C3)Cl)O
Method in brief: as §1

[2] = compound: C1=CC(=CC=C1C2=NC3=C(N2)C=C(C=C3)C(=O)N)OC4=CC=C(C=C4)Cl
Method in brief: as §1

[3] = compound: C1=CC2=C(C=CC(=C2)/C=C\3/C(=O)NC(=NCC4=CC=CS4)S3)N=C1
Method in brief: as §1

[4] = compound: C1=CC2=NC=CN=C2C=C1/C=C/3\C(=O)NC(=O)S3
Method in brief: as §1

[5] = compound: C1=CC=C(C=C1)C2=NC(=C(N2)C3=CC=NC=C3)C4=CC(=C(C=C4)Cl)O
Method in brief: as §1

[6] = compound: C1=CC=C2C(=C1)C3=NNC4=CC=CC(=C43)C2=O
Method in brief: as §1

[7] = compound: C1CCN(C1)C(=O)NC2=CC=CC(=C2)NC3=NC=C(C(=N3)NCCC4=CN=CN4)Br
Method in brief: as §1

[8] = compound: C1CN(CCC1(CC2=CC=C(C=C2)Cl)N)C3=NC=NC4=C3C=CN4
Method in brief: as §1

IRAK-1-4 Inhibitor I = compound: C1COCCN1CCN2C3=CC=CC=C3N=C2NC(=O)C4=CC(=CC=C4)[N+](=O)[O-] [IRAK-1-4 Inhibitor I]
Method in brief: as §1

ibrutinib = compound: C=CC(=O)N1CCC[C@@H](n2nc(-c3ccc(Oc4ccccc4)cc3)c3c(N)ncnc32)C1 [ibrutinib]
Method in brief: as §1

[9] = compound: CC(=O)c1cnc2ccc(-c3cc(Cl)c(O)c(Cl)c3)nc2c1N[C@H]1CC[C@H](CN(C)C)CC1
Method in brief: as §1

ralimetinib = compound: CC(C)(C)Cn1c(N)nc2ccc(-c3[nH]c(C(C)(C)C)nc3-c3ccc(F)cc3)nc21 [ralimetinib]
Method in brief: as §1

[10] = compound: CC(C)(O)CC(=O)NCCn1ccc2ncnc(Nc3ccc(Oc4cccc(C(F)(F)F)c4)c(Cl)c3)c21
Method in brief: as §1

[11] = compound: CC(C)C1=C2N=C(C=C(N2N=C1)NCC3=CC=CC=C3)NCCCCCCN
Method in brief: as §1

[12] = compound: CC1=C(C(CC(=O)N1)C2=CC=C(C=C2)C(F)(F)F)C(=O)NC3=C(C=C4C(=C3)C=NN4)F
Method in brief: as §1

[13] = compound: CC1=C(C2=C(C=C1)C(=O)C3=CC=CC=C3N2CCCN)C
Method in brief: as §1

[14] = compound: CC1=C(C=C(C=C1)NC(=O)C2=CC(=CC=C2)C(C)(C)C#N)NC3=CC4=C(C=C3)N=CN(C4=O)C
Method in brief: as §1

[15] = compound: CC1=C(C=C(C=C1)NC(=O)C2=CC(=CC=C2)N(C)C)NC(=O)C3=CC=C(C=C3)O
Method in brief: as §1

[16] = compound: CC1=CC=C(C=C1)SC2=C3C=C(SC3=CN=C2)C(=O)N
Method in brief: as §1

Measured: log2 fold change

EIF4A1 (UniProt P60842)
inactive: erlotinib 0.024 | [1] 0.027 | [2] 0.008 | [3] -0.003 | [4] -0.005 | [5] -0.003 | [6] -0.03 | [7] 0.011 | [8] 0.042 | IRAK-1-4 Inhibitor I 0.009 | ibrutinib 0.021 | [9] -0.001 | ralimetinib 0 | [10] -0.024 | [11] 0.008 | [12] -0.034 | [13] -0.018 | [14] 0.003 | [15] 0.007 | [16] 0.009

EML3 (UniProt Q32P44)
inactive: erlotinib -0.027 | [1] 0.008 | [2] 0.009 | [3] -0.011 | [4] -0.01 | [5] -0.03 | [6] 0.008 | [7] -0.012 | [8] -0.025 | IRAK-1-4 Inhibitor I -0.014 | ibrutinib 0.014 | [9] -0.029 | ralimetinib 0.011 | [10] -0.006 | [11] -0.018 | [12] 0.006 | [13] -0.017 | [14] 0.016 | [15] 0.002 | [16] -0.02

ERCC2 (UniProt P18074)
inactive: erlotinib 0.027 | [1] -0.028 | [2] 0.018 | [3] 0.025 | [4] 0.006 | [5] 0 | [6] -0.041 | [7] -0.002 | [8] -0.031 | IRAK-1-4 Inhibitor I 0.008 | ibrutinib -0.026 | [9] -0.02 | ralimetinib 0.077 | [10] -0.015 | [11] 0.002 | [12] -0.048 | [13] -0.016 | [14] -0.019 | [15] 0.031 | [16] 0.002

EPS8L2 (UniProt Q9H6S3)
inactive: erlotinib 0.082 | [2] 0.009 | [4] 0.037 | [5] 0.133 | [7] -0.108 | [8] 0.055 | IRAK-1-4 Inhibitor I -0.086 | ibrutinib -0.041 | [9] -0.026 | ralimetinib -0.028 | [10] -0.021 | [11] 0.002 | [12] 0.031 | [13] -0.002 | [14] -0.054 | [15] -0.084 | [16] 0.015

EIF4G1 (UniProt Q04637)
inactive: erlotinib 0.005 | [1] -0.002 | [2] 0.003 | [3] -0.002 | [4] 0.005 | [5] 0.003 | [6] -0.007 | [7] -0.002 | [8] -0.003 | IRAK-1-4 Inhibitor I 0 | ibrutinib 0.001 | [9] 0.017 | ralimetinib -0.001 | [10] -0.016 | [11] -0.009 | [12] -0.005 | [13] 0.027 | [14] -0.004 | [15] 0.009 | [16] -0.004

ENDOG (UniProt Q14249)
inactive: erlotinib 0.006 | [1] 0.075 | [2] 0.006 | [3] -0.014 | [4] 0 | [5] -0.041 | [6] -0.088 | [7] -0.008 | [8] 0.037 | IRAK-1-4 Inhibitor I -0.001 | ibrutinib 0.035 | [9] 0.014 | ralimetinib 0.079 | [10] -0.051 | [11] -0.016 | [12] -0.019 | [13] 0.005 | [14] -0.025 | [15] 0.021 | [16] 0.008

EIF4H isoform 2 (UniProt Q15056)
inactive: erlotinib -0.035 | [1] 0.276 | [2] 0.151 | [3] 0.024 | [4] -0.1 | [5] -0.03 | [6] 0.1 | [7] 0.221 | [8] 0.147 | IRAK-1-4 Inhibitor I 0.013 | ibrutinib 0.023 | [9] 0.006 | ralimetinib -0.082 | [10] -0.164 | [11] -0.055 | [13] -0.094 | [14] -0.053 | [15] -0.084 | [16] 0.1

EPHX1 (UniProt P07099)
inactive: erlotinib -0.035 | [1] -0.049 | [2] 0.016 | [3] -0.025 | [4] 0.004 | [5] -0.002 | [6] 0.01 | [7] 0.065 | [8] -0.033 | IRAK-1-4 Inhibitor I -0.027 | ibrutinib -0.015 | [9] -0.013 | ralimetinib 0.043 | [10] 0.001 | [11] -0.005 | [12] 0.017 | [13] 0.054 | [14] 0.037 | [15] -0.014 | [16] -0.003

ERCC6 (UniProt Q03468)
inactive: erlotinib -0.073 | [1] 0.21 | [2] -0.023 | [3] -0.01 | [4] -0.062 | [5] -0.014 | [6] 0.057 | [7] -0.131 | [8] -0.119 | IRAK-1-4 Inhibitor I 0.03 | ibrutinib 0.05 | [9] 0.004 | ralimetinib -0.017 | [10] -0.02 | [11] 0.046 | [12] -0.005 | [13] 0.217 | [15] -0.009 | [16] -0.004

ERCC5 (UniProt P28715)
inactive: erlotinib 0.025 | [1] -0.022 | [2] 0.042 | [3] 0.023 | [4] -0.104 | [5] 0.007 | [6] -0.037 | [7] -0.061 | [8] 0.008 | IRAK-1-4 Inhibitor I 0.022 | ibrutinib 0.038 | [9] -0.01 | ralimetinib 0 | [10] 0 | [11] 0.001 | [12] 0.079 | [13] -0.028 | [14] -0.061 | [15] 0.028 | [16] -0.006

ELOVL6 (UniProt Q9H5J4)
inactive: erlotinib -0.491 | [1] 0.352 | [2] -0.061 | [3] 0.37 | [6] -0.01 | [9] 0.042 | [11] -0.057 | [12] 0.069 | [13] 0.137 | [14] 0.021 | [16] -0.022

EIF4EBP1 (UniProt Q13541)
inactive: erlotinib 0.018 | [1] 0.123 | [2] -0.066 | [3] -0.001 | [4] -0.036 | [5] 0.015 | [6] -0.058 | [7] 0.039 | [8] 0.011 | IRAK-1-4 Inhibitor I -0.02 | ibrutinib -0.016 | [9] -0.041 | ralimetinib -0.037 | [10] 0.011 | [11] -0.007 | [12] -0.059 | [13] -0.02 | [14] 0.056 | [15] 0.006 | [16] -0.002
